From PMC12622526
These are yes or no findings as the source states them, for the method shown. In cells and extracts the contact can be indirect. These calls come from enrichment with a bait or labelling near it, and not all partners need be listed. Where a sequence is shown, tags or fusion partners need not be part of it.

By UniProt entry, the sequences of proteins in these tests, tags left out.
UniProt P60953: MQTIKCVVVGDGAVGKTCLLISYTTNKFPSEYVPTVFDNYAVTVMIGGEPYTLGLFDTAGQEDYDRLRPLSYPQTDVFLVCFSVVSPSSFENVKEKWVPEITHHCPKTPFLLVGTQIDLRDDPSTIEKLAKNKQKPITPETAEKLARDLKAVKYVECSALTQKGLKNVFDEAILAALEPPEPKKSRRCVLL
UniProt P46940: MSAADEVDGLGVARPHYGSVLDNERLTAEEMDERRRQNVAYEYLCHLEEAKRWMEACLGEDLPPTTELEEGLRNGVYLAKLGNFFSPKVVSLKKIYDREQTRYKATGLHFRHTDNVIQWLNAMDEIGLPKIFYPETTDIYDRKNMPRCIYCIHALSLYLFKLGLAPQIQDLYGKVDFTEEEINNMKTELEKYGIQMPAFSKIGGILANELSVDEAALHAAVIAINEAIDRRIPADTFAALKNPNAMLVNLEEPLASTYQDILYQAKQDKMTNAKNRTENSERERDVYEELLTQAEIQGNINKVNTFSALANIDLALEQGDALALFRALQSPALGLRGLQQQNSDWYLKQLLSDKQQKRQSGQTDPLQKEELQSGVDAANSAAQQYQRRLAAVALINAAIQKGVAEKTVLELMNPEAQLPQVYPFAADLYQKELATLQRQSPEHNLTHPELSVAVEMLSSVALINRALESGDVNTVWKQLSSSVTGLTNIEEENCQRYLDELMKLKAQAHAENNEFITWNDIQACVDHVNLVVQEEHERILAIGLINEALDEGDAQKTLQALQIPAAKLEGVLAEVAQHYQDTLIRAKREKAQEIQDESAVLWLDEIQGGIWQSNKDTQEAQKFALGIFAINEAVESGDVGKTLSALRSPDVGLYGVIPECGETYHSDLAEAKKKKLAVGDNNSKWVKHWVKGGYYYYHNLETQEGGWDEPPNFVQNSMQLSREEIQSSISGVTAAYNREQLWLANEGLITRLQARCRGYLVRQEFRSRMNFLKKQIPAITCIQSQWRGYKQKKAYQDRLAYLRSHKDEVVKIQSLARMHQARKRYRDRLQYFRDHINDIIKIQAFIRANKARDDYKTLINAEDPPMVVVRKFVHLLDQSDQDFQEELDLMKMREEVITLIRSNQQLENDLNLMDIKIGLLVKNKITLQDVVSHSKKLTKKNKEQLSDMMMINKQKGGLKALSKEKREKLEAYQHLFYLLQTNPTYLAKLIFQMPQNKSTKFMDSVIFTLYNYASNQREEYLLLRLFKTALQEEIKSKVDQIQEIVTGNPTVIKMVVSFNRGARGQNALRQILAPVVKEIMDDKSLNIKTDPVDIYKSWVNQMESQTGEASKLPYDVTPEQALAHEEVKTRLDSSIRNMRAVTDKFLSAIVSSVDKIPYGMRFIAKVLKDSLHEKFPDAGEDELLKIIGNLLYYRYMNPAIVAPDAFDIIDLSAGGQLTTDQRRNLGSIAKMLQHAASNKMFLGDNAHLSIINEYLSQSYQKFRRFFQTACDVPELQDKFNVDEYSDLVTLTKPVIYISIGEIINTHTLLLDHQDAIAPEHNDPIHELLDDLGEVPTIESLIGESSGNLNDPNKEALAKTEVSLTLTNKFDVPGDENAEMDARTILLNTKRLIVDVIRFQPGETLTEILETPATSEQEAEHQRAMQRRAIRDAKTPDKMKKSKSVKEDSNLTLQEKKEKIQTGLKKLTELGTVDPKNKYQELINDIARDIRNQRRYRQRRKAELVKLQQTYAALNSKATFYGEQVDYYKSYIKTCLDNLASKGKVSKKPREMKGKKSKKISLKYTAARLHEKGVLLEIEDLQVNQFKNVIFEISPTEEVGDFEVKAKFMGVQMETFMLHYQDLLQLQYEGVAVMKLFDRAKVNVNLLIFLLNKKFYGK
UniProt Q15811: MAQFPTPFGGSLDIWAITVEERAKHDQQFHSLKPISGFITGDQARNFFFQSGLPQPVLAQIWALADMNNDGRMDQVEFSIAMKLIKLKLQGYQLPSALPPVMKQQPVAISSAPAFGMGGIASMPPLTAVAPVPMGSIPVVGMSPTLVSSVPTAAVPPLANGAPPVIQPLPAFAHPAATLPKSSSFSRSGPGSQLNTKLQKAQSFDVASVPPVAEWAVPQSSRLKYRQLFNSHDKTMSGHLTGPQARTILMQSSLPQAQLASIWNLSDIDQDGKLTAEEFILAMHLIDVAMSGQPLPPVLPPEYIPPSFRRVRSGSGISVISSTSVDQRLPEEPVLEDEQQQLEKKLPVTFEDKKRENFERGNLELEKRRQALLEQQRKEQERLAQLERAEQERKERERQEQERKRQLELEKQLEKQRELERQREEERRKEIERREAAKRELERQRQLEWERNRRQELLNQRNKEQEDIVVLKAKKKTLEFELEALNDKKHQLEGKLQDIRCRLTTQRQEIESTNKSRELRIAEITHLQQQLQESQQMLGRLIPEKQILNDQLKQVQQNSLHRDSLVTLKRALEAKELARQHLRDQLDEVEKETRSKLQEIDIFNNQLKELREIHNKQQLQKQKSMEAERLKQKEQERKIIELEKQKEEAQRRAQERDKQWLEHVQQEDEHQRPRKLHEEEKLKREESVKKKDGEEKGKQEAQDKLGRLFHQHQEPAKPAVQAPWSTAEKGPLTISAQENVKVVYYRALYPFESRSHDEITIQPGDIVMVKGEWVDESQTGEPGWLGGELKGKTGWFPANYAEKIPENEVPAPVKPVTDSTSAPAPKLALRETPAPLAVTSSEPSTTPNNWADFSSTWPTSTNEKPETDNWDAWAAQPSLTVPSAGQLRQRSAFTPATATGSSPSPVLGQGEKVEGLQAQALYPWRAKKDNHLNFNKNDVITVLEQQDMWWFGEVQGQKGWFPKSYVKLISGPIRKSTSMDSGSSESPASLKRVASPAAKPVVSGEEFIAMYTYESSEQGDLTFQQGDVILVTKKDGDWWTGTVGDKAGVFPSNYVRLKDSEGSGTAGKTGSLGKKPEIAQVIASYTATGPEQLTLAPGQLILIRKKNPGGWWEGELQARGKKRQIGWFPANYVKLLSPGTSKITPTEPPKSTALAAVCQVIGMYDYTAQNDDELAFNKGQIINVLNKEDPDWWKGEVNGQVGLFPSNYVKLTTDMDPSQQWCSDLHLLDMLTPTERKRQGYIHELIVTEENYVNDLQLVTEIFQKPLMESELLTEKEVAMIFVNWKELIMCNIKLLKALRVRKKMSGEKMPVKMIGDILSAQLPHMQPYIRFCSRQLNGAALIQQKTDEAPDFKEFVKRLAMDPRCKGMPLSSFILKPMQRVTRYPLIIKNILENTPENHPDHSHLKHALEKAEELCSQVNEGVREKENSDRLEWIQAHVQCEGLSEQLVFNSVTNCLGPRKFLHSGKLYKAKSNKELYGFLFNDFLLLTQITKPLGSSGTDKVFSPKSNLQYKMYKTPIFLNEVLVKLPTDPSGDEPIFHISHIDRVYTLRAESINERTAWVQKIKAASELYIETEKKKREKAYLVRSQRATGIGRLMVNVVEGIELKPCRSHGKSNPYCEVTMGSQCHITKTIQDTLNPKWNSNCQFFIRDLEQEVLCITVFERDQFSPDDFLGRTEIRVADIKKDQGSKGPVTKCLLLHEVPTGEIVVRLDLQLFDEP

Biological target: COA4‐Flag (human cytochrome c oxidase assembly factor 4), transfected in A549 cells (human) (UniProt Q9NYJ1)
Experiment: affinity purification with mass spectrometry; A549 cells transfected with Flag‐COA4 for 48 h; anti‐FLAG immunoprecipitation (Pierce Co‐IP Kit), SDS‐PAGE bands analysed by LC‐MS/MS

**Q.** For “CDC42, endogenous (from UniProt P60953 1-191)”, which binding is on record?
**A.** Its binding is “binds”.

**Q.** For IQGAP1 (from UniProt P46940 1-1657), which binding is on record?
**A.** The binding was “binds”.

**Q.** ITSN1 (from UniProt Q15811 1-1721) was tested. Which binding did it give?
**A.** The binding was “binds”.
